Data from article PMC3751843.

Tested on: NF-kB p50 + NF-kB p65
Test: EMSA supershift
Conditions: nuclear extract, IL1B-treated AGS, p50 or p65 antibody in separate reactions, chase with unlabelled probe; Binding buffer, pH and temperature not given; extract storage buffer 10 mM Hepes pH 7.9, 50 mM KCl, 0.2 mM EDTA, 20% glycerol, 0.5 mM PMSF, 0.5 mM DTT; protein in an extract

TGACCCCCAGGATATGGTGGG (double strand) [gastrin promoter putative NFkB site probe]
binding result: binds

AGTTGAGGGGACTTTCCCAGGC (double strand) [consensus NFkB probe]
binding result: binds

The exact form of at least one protein or probe is not confirmed. Where cells or extracts were used, other partners may take part. At least one verdict was read from the data and is not stated in words by the source.
